Literature values as cited in patent US20120115958A1, “LIQUID PHARMACEUTICAL FORMULATION CONTAINING PARACETAMOL” (Aziende Chim. Riun. Ang. Franc. A.C.R.A.F. S.p.A., priority 2008, published 2012).

Conditions: at 20° C.

- Solubility in water: 1.4 g/100 ml
SMILES: CC(=O)Nc1ccc(O)cc1 [paracetamol]
